Data source: PubChem BioAssay AID504808 (Drosophila RNAi Screening Center, 2011)
The deposit covers about 21,000 reagents; shown is an unselected part of those that have a named target and a result. Over the whole deposit, 18 (0.084%) are marked active. 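Raw counts without plate normalisation, one of two replicates; the ratio scores behind the calls were not deposited.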 Entries without a mark were called inactive. A plus sign joins genes that one reagent is predicted to hit. Not stated in the record: the amount of reagent, the time to read-out.

- Test: 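Genes whose loss lifts activity of an E2F-responsive reporter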 (primary screen)
- System: Drosophila S2 cells
- Knock-down reagent: long dsRNA against Drosophila genes
- Read-out: 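Firefly luciferase driven by E2F sites, normalised to Renilla luciferase on the same minimal promoter, measured by plate reader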
- Direction: E2F firefly: higher = more E2F reporter activity; Renilla normaliser: higher = more normaliser reporter signal
- Call rule: 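Called active if the normalised E2F reporter went up by over 50%; the cutoff is arbitrary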

no.	gene	amplicon	E2F firefly, rep 1	Renilla normaliser, rep 1
1	CG30340	DRSC05167	1.30e5	5515
2	hpRNA:CR18854 + IP3K1	DRSC02218	82095	3153
3	CG8888	DRSC07294	3153	180
4	CG8888	DRSC07295	1.03e5	3972
5	CG4822	DRSC00669	86467	3751
6	Tom	DRSC11306	76333	3314
7	Chi	DRSC04602	78309	3403
8	CG14435	DRSC17928	57267	3901
9	CG11425	DRSC11657	1.32e5	5901
10	dl	DRSC03520	91588	3947
11	dl	DRSC03521	1.10e5	4579
12	CG18213	DRSC15316	1.19e5	5955
13	CG13843	DRSC14693	96291	5817
14	CG8260	DRSC20098	2.25e5	6674
15	Rint1	DRSC11010	68810	3707
16	Neu2	DRSC11819	1.29e5	8225
17	CG32813	DRSC17948	72729	5009
18	Tao	DRSC19573	1.76e5	6406
19	Tao	DRSC19574	1.25e5	6841
20	DhpD	DRSC12288	78823	3760
21	CG15531	DRSC15068	1.35e5	6032
22	Nep6	DRSC19877	7002	732
23	Enoph	DRSC12201	1.38e5	5379
24	CG10565	DRSC11620	75556	3664
25	BBS9	DRSC04257	1.22e5	5078
26	Oatp33Ea	DRSC02859	62267	3383
27	Pldn	DRSC10137	1.23e5	6062
28	CG13288	DRSC09962	92939	3398
29	Fkbp39	DRSC16667	62613	3295
30	Ku80	DRSC02699	93609	4249

Next part (8 carried over from the part before).
no.	gene	amplicon	E2F firefly, rep 1	Renilla normaliser, rep 1
23	Enoph	DRSC12201	1.38e5	5379
24	CG10565	DRSC11620	75556	3664
25	BBS9	DRSC04257	1.22e5	5078
26	Oatp33Ea	DRSC02859	62267	3383
27	Pldn	DRSC10137	1.23e5	6062
28	CG13288	DRSC09962	92939	3398
29	Fkbp39	DRSC16667	62613	3295
30	Ku80	DRSC02699	93609	4249
31	CG3823	DRSC18325	58318	3966
32	CG14983	DRSC08441	97325	4368
33	CG8950	DRSC07300	63603	2635
34	Tcs3	DRSC10461	1.84e5	8005
35	CG12942	DRSC06253	154	30
36	Remo	DRSC19710	1.06e5	4794
37	REPTOR-BP	DRSC02683	1.69e5	6063
38	AOX2	DRSC15338	1.20e5	6355
39	CG13856	DRSC14706	1.54e5	8607
40	ck	DRSC03509	74396	3421
41	Ripalpha	DRSC02657	1.49e5	5073
42	CG31975 + ovm	DRSC00323	1.34e5	4784
43	GILT3	DRSC14672	1.03e5	7277
44	Usp30	DRSC18265	55164	3360
45	acj6	DRSC20304	8471	824
46	CG14298	DRSC14777	1.15e5	8257
47	wake	DRSC16148	1.05e5	5450
48	wake	DRSC16149	1.10e5	5548
49	eEF2	DRSC03737	99316	4716
50	Dtd	DRSC15362	1.27e5	5641
51	Uxt	DRSC01962	1.03e5	4246
52	Cpr49Ag	DRSC07203	99824	4580
53	thetaTry	DRSC07705	99637	4130
54	Ubc84D	DRSC12610	1.44e5	5861
55	CG32568	DRSC19913	1.37e5	6191
56	CG14929 + CG4970	DRSC02411	1.53e5	5429
57	CG14929 + CG4970	DRSC02796	1.44e5	4714
